# PubChem BioAssay AID602196 – INSERM | 2012
# Screen: 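Genes whose knock-down alters cisplatin killing of lung cancer cells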
# Cell system: human A549 lung cancer cells
# Reagent: siRNA pair against human genes
# Time to read-out: 48 h transfection before cisplatin; time from cisplatin to read-out not stated
# Conditions: cisplatin at a dose killing half of control-siRNA cells; exact dose and duration not given
# Measurement: 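Shift in cisplatin death relative to control siRNA, from -50 (all cells die) to +50 (no cells die); siRNAs harmful on their own scored 0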
# Reading the numbers: two-siRNA summed score (-2 to +2): higher = both siRNAs protect from cisplatin killing; -2 means both sensitise; mean protection from cisplatin (shift in death) and protection from cisplatin (shift in death), siRNA C and protection from cisplatin (shift in death), siRNA D: higher = protection from cisplatin killing
# Call rule: 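siRNAs harmful alone (LDH or WST-1) get 0; others get +1 for less and -1 for more cisplatin killing; genes are active when the two siRNAs give the same sign, summing to ±2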
# Calls: active = both siRNAs shift cisplatin killing the same way; inactive = no consistent shift, or siRNA harmful alone
# Shown is one part, drawn at random, of about 23,000 reagents. 455 of them (2%) count as active. 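Active includes both protection and sensitisation; some change values fall well beyond the stated -50 to +50 range.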 Entries without a mark were called inactive. Not stated in the record: the amount of reagent.
gene symbol,PubChem SID,two-siRNA summed score (-2 to +2),mean protection from cisplatin (shift in death) (%),"protection from cisplatin (shift in death), siRNA C (%)","protection from cisplatin (shift in death), siRNA D (%)"
LOC159170,SID131508008,0,0.5,3,-2
PARM1,SID131508852,0,1.5,6.8,-3.7
LOC442643,SID131513906,0,7.2,8.7,5.6
LRRC28,SID131508839,0,1.5,6.1,-3.1
VSIG10L2,SID131517190,0,12.7,13.1,12.2
LOC400622,SID131509631,0,2.3,4.2,0.5
LRATD1,SID131503038,0,-15.1,-15.9,-14.3
OR4E2,SID131510078,0,2.8,11.5,-5.8
ADAMDEC1,SID131517280,0,12.9,9.7,16.1
SPAG9,SID131516687,0,11.4,17.1,5.7
COL22A1,SID131513735,0,6.9,12.8,1.1
LOC285101,SID131521832,1,15.1,10.7,19.4
PRMT1,SID131516871,0,11.8,17.8,5.9
CEP170B,SID131521462,1,13.6,24.8,2.4
LOC387904,SID131505802,0,-2.5,-5.1,0
MSH2,SID131512585,0,5.6,-1.6,12.9
MRPS35,SID131506176,0,-1.9,-4.8,1
GPI,SID131501628,-1,-8.6,-19.3,2.2
LOC440631,SID131515325,0,9,9.1,8.9
SLC6A19,SID131506895,0,-0.8,20,-21.6
PDZK1IP1,SID131520719,1,10.9,18.7,3.1
MED25,SID131512605,0,5.7,5.6,5.8
LOC440598,SID131518169,0,17,11.7,22.4
LOC283902,SID131511938,0,4.9,8.8,1
UBA5,SID131508613,0,1.3,-0.8,3.3
LOC341306,SID131517112,0,12.4,2.8,22.1
LOC388514,SID131504452,0,-5.4,3.7,-14.4
OR2M2,SID131515814,0,9.7,9.7,9.8
WFDC1,SID131508432,0,1,15.7,-13.6
CDK20,SID131520883,1,11.4,14.5,8.3
SSX6P,SID131505972,0,-2.2,-11.7,7.2
ZNF665,SID131512975,0,6.1,10.6,1.6
HOXB6,SID131516226,0,10.5,5.8,15.2
SPTLC2,SID131520602,1,10.4,2.8,18
KL,SID131506850,0,-0.9,-7.4,5.6
VPS35,SID131505975,0,-2.2,-15,10.5
LOC391769,SID131505126,0,-3.7,-9.6,2.2
GLI2,SID131503722,0,-8.2,-6.7,-9.7
HS3ST4,SID131504053,0,-6.7,-10.4,-2.9
GNAZ,SID131504261,0,-5.9,-0.4,-11.5
RBM47,SID131511290,0,4.2,9.5,-1.1
LOC441797,SID131517875,0,15.2,8.6,21.8
LOC401704,SID131520126,1,8.8,23,-5.4

Continued, starting with the last 6 of the part before.
gene symbol,PubChem SID,two-siRNA summed score (-2 to +2),mean protection from cisplatin (shift in death) (%),"protection from cisplatin (shift in death), siRNA C (%)","protection from cisplatin (shift in death), siRNA D (%)"
GLI2,SID131503722,0,-8.2,-6.7,-9.7
HS3ST4,SID131504053,0,-6.7,-10.4,-2.9
GNAZ,SID131504261,0,-5.9,-0.4,-11.5
RBM47,SID131511290,0,4.2,9.5,-1.1
LOC441797,SID131517875,0,15.2,8.6,21.8
LOC401704,SID131520126,1,8.8,23,-5.4
KIAA1836,SID131521935,1,15.5,0.2,30.8
SLC19A2,SID131502102,-1,-5.3,4.5,-15.2
PPP1R7,SID131509661,0,2.4,-8.5,13.2
OCLN,SID131512408,0,5.4,15.4,-4.5
BBOX1,SID131510986,0,3.9,-0.8,8.5
PCDHB9,SID131509420,0,2.1,5.3,-1
MED29,SID131517147,0,12.5,12.6,12.5
TSHB,SID131521734,1,14.6,17.5,11.8
EXOSC7,SID131502025,-1,-5.8,2.2,-13.9
RAB8B,SID131503770,0,-7.9,8.6,-24.4
RBFOX1,SID131507955,0,0.5,7.2,-6.3
LSM1,SID131513007,0,6.1,12.5,-0.3
ABLIM1,SID131519031,1,1.2,-8.7,11.1
PRSS51,SID131503595,0,-9,-9.2,-8.8
AKAP7,SID131508913,0,1.6,-11,14.3
RMND5A,SID131511189,0,4.1,10.6,-2.5
KRT81,SID131520185,1,9,23,-5
CAPN5,SID131518878,0,35.8,4.4,67.2
KRABD4,SID131501162,-1,-11.9,-13.8,-10
ZNF451,SID131521792,1,14.9,8.1,21.7
LOC399961,SID131517038,0,12.3,16,8.5
PDPR2P,SID131506037,0,-2.1,-4.6,0.4
SAMTOR,SID131509265,0,2,-1.6,5.6
KCNE5,SID131501004,-1,-13.5,-22,-4.9
NSUN3,SID131514568,0,8,12.6,3.3
STEAP3,SID131511939,0,4.9,4.3,5.6
ALG3,SID131512003,0,5,5.1,5
LOC377064,SID131521395,1,13.3,0.4,26.1
UNQ5810,SID131514880,0,8.4,11.4,5.4
SMG9,SID131519909,1,8,21.2,-5.3
